We go through eight molecules from article PMC7196074.

Protein sequences, listed by entry. Tags and fused reporters are not part of them.
UniProt Q9VHP0: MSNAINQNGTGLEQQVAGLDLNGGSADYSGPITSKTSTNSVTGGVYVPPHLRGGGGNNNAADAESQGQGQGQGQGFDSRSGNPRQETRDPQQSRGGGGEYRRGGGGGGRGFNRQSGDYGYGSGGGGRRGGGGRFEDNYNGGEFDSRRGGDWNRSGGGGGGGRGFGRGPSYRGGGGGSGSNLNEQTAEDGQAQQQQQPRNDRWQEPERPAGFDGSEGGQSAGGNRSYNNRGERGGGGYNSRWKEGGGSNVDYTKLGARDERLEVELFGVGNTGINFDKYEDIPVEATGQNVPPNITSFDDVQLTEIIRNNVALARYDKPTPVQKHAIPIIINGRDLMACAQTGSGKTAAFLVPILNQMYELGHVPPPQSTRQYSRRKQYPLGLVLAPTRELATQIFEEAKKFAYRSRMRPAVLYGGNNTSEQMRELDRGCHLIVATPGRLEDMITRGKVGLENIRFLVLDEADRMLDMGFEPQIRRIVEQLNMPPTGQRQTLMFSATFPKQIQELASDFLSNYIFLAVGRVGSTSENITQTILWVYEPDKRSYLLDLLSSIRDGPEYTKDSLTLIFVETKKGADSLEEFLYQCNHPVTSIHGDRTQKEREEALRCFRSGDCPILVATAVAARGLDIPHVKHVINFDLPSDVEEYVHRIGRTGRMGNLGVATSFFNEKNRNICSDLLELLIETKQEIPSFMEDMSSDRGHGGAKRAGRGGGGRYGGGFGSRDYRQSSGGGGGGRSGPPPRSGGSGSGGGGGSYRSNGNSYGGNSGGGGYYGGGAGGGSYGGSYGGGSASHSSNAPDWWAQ
UniProt P25823: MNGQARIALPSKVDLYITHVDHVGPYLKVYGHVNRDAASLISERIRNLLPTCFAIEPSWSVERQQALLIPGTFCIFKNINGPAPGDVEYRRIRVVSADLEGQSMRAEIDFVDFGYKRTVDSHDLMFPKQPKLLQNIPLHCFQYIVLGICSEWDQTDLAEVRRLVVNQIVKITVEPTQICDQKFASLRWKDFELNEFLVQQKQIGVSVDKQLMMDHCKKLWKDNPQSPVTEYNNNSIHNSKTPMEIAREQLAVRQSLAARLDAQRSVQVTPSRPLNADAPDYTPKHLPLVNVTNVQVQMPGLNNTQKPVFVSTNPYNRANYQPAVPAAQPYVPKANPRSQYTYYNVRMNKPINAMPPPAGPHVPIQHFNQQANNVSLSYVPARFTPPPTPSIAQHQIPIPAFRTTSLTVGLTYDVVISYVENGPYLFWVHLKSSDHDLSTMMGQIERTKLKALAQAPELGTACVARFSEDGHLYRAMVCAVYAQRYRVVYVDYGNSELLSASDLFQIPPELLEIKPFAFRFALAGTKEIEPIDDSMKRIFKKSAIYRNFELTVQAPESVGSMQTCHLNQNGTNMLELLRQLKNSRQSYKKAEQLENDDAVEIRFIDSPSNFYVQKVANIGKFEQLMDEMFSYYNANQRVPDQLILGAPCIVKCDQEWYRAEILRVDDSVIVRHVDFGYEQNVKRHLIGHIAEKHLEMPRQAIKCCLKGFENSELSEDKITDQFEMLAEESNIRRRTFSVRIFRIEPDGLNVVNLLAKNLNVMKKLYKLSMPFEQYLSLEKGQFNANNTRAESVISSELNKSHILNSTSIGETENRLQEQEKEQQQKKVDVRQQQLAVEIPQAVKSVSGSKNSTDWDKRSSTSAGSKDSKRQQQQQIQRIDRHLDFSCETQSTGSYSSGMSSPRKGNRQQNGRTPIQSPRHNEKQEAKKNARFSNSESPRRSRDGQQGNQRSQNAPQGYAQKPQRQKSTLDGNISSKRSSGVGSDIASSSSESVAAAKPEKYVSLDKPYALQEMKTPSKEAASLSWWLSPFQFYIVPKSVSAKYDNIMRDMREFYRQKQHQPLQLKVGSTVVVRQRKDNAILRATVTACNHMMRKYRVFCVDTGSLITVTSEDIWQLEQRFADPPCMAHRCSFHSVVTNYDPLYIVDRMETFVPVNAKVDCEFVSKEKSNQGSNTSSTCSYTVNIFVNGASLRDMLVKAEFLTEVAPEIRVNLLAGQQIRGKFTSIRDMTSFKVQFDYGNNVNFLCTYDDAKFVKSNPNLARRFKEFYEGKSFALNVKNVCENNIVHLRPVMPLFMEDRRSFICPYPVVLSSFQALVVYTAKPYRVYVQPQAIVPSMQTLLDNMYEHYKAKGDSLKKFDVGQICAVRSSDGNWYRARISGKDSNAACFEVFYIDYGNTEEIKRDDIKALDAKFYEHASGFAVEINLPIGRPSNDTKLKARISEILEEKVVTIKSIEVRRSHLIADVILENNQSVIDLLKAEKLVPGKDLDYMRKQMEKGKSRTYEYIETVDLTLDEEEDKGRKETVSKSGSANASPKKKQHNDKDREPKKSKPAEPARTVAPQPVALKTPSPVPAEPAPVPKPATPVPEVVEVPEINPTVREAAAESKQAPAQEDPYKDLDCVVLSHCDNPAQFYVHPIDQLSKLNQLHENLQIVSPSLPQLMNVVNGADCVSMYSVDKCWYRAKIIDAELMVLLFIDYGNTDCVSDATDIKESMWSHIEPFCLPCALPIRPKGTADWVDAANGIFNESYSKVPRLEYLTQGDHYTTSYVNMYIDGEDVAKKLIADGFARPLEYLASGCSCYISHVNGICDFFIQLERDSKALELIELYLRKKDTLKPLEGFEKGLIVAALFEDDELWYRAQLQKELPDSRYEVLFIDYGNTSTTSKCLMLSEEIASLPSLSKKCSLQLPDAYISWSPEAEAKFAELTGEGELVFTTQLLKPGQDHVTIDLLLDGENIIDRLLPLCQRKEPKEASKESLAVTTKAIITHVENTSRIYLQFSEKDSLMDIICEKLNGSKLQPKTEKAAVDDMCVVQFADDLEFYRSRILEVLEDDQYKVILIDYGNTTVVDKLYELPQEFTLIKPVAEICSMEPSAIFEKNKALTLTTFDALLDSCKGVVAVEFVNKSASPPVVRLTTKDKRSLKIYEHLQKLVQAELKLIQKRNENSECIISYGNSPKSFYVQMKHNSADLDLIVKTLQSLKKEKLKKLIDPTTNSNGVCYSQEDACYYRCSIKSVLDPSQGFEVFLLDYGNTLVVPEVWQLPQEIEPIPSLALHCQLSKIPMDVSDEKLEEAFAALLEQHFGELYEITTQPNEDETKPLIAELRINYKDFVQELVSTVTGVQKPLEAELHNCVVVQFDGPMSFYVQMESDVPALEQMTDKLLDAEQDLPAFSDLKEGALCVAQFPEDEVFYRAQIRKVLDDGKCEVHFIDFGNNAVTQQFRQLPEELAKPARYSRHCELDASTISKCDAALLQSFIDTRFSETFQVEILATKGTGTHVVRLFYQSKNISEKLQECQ
UniProt P21187: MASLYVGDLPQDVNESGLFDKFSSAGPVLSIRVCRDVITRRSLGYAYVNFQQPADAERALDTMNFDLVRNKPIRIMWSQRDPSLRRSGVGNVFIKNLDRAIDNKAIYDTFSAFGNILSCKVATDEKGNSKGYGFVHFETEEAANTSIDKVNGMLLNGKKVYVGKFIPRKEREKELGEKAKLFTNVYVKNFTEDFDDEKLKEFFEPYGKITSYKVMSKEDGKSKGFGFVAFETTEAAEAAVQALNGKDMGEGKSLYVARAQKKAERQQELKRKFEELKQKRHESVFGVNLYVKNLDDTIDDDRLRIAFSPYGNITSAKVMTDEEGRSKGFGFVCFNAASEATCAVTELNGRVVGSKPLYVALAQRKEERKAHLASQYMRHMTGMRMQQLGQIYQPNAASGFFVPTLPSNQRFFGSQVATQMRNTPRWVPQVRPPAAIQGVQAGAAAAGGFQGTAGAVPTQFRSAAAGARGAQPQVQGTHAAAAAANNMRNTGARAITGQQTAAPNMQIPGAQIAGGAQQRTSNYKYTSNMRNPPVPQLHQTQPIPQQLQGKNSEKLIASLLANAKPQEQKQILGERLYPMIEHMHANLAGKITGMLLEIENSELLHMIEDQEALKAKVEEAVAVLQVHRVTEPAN

This experiment addresses T1, GFP-Aub (Aubergine) (Drosophila) (UniProt O76922).
T1 sequence: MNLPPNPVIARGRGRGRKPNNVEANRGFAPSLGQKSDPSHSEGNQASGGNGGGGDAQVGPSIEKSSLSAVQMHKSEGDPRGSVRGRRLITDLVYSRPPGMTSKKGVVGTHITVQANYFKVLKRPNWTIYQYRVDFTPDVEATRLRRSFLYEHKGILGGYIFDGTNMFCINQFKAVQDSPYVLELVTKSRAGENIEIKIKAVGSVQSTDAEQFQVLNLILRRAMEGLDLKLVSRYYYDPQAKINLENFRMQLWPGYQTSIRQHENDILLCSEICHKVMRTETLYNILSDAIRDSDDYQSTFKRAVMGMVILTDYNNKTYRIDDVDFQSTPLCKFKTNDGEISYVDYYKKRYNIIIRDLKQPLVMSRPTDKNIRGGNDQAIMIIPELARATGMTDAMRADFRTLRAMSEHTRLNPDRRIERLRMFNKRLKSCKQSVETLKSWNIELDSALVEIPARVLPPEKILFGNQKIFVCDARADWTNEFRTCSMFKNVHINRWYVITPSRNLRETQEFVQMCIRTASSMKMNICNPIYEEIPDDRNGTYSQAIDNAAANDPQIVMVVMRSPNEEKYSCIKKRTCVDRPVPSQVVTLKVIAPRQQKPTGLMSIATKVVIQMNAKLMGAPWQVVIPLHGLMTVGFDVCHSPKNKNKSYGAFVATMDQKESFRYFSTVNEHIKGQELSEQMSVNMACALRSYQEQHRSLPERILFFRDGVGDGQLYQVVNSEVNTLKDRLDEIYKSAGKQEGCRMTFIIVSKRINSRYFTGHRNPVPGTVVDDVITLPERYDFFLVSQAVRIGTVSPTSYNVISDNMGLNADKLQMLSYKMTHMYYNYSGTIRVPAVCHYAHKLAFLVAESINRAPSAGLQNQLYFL
Put plainly: affinity purification with mass spectrometry; GFP-Aub precipitated on GFP-trap beads from lysates of 0-2 h embryos (UASp-GFP-Aub nos-Gal4; also osk^54 mutant embryos), DXB buffer with 150 mM NaCl, Triton X-100 and RNasin, overnight at 4 °C; embryos expressing GFP alone as control.

No constants are given. Whether binding was seen depends on the method and setting. In cells and extracts the contact can be indirect. These calls come from enrichment with a bait or labelling near it, and not all partners need be listed. Tags and fused reporters may be left off the sequences shown.

In the case of Belle (Bel) (from UniProt Q9VHP0 1-798), the binding result is “binds”.
Under “Tudor (Tud) (from UniProt P25823 1-2515)” stands “binds”; under “eIF3d, endogenous (Drosophila (endogenous in 0-2 h embryos))”, “binds”.
Under “eIF4E, endogenous (Drosophila (endogenous in 0-2 h embryos))” stands “binds”.
The result for “poly(A)-binding protein (PABP), endogenous (from UniProt P21187 1-634)” reads “binds”.

B1: Capsuleen/PRMT5 (Csul) (enzyme, UniProt Q9U6Y9 1-610)
chain: MNYYVCLHQEGVNSIPKLIEKAFANNYNVVSTSINANMLPFEPHESDPTYPATILSGSDWNSKVIFTMSDVNVDSPNDKLREHAKEVFMRDVAWAEHLQNVGNLMVRLRGPENENLASIVLAKTKDDFPSGNWFIQVPITNPELATFEHRKDATAEEVAEAESNDPWNWWNNLRMVTKHSTKVKVVIELNDADRPSKETVRRWLGEPIEAIIIPSSLFVRNRSNYCVLKKEWQLIVGHFISVRANIIISTNPNDKALCQYADYVNKLINDNCDKHMLNSYENMLEIPLQPLCDNLDTYTYEVFETDPVKYKLYQDAVQAALLDRVSAAEAKTKLTVVMLLGGGRGPLARAVFNAAELTKRKVRLYIIEKNPNAIRTLSNMVKTLWADKDVHIFSKDMRDFSPPELADIMVSELLGSFGDNELSPECLDGALKLLKPDGISIPYKSTSYINPLMSAVLHQNVCQLLPTYPAFDYGYVSLLKNIYHIDEPQALFEFVHPNRAENIDNTRCKTVSFKVNKDCVLHGIGGYFDTHLYKDICLSINPLTHTPGMFSWFPMFFATRPRTLREGQTISIQFWRCVDATKVWYEWQVVNSPDDWEHHNTRGTGYNMRL
On to B1, for which the binding result is on record as “binds”.

B2: eIF3b, endogenous (protein, UniProt Q0E940 1-690)
chain: MAKKKSEEHSGTDANDSDYQEEPNFDDPPGFVDNISDEDLLGDMLAQRPSEADGVESVVVVDNIPKVEPVRLEKLKLVINKLFSNYGEIVNVVYPVDEEGKTKGYAFMEYKQARQAEEAVKKLNNHRLDKNHTFAVNLFTDFQKYENIPEKWEPPTVQTFKVQSDLYNFINDPDTYDQYCVAAETAPNCVQVGFWQNVLPEPFELETRERFTDTFVKWSPLGTYVVTFHKPGVAIWGGSSFQKIQKFPHPGTQFVEFSPCENYLVTYGPTPTGQKIIIWDIRTGAEKRSFVADGMSVLSMFRWSHDDKFVARMGENSIHIYETPSFYLLDLKSIKIPGIRGFSWSPTDNVIAYWVEEQNQIPARVTLMEIPKKREIRNKNLFHVADCKLHWQKSGDYLCVKVDRYSKLKKDKKDLDVKFLGMFYNFEIFHMREKEIPVDSVEIRELILAFAWEPVGNKFSIIHGETNSSNVSFYEVNKGVKPSLVKRLEKKSCTHLFWSPRGQFIVMANLTMGTFEFVDSTNDYIITASPDHFRASEVEWDPTGRYVVTGVSSWKVKEDTGFNMYTFQGRIIKRTILKNFVQFLWRPRPPTLLSEEKQKEIKKNLKKYYAAFEQKDRLRLTRASKELLEKRSQLRETFMEYRNKRIAEWAEQKSRRIMLRGHVDTDNLETDEVDEEIVEFLVKEEVTLLE
Consider B2, for which the binding entry is “binds”.

B3: Cup (protein, UniProt Q9VMA3 1-1117)
chain: MQMAEAEQENGAGALKIATNAGATDRPAHQQLPLPVEDQQDEVLTPAEKGKFEYPPPPPPPTPVQAPLATKATALNASQEHDDDEANSEKWEDPCAPPPPPPLPTSAFLATGLGYLKLPAFKLKDALEKAITKLEANKRTLKASPESSRSIKNKNVVALEMLPRRSNPETIGDGSMLASTSTAVMLQTKKPAVIVEMERRCKIINLLAKQNQILESISGEAIPMHGPSKHLHEDEGLTLQVLSARASTPYTQPSSMLSCTAVSCDLEHDSPRKQVASKEAVPEQQSSQVQQKRPPSTGIHKPGSLRAPKAVRPTTAPVVSSKPVKSYTRSRLMDIRNGMFNALMHRSKESFVMPRIATCDDIELEGRLRRMNIWRTSDGTRFRTRSTTANLNMNNNNNNECMPAFFKNKNKPNLISDESIIQSQPPQPQTEFQDPAIVNQRRIGSGRLNHSKWGYNDEDYHSYHNGKSQHMEEVNSKNSKNMTVLQFFDNGEISSQPQRRPNTPVMGMSINRSENDTLHSNESSEDLSRANENYVKRVMSGFLVVSKPKSRDVEDRHHRRYRNQNEEPEWFSCGPTSRLDTIELCGFDEDEEKMLKEGNKNHGLGETERETSKQKMDHKYKWTHAEPMGRSKYMPKHDTNNNHNVENMNNVMATEHQQQKEEKRPGSGRSFQFDKFNQSQQNYESSSYVNHQQPPQTQPQQMQQQSNTNTNNSKFMSFFANEGNSSSSSLNEFFKQAINQGHGNNPEQPKSLGHIGQMPSVDQLEAKWRRNSLNNVGETANKQTDNFQKLIGSLSSAKPQSQAVGYDAISNFIMQQQQYQQQQQKQHLIIQQQQQHTAFLASLQLKAILGRADTQLLLLRLTKGEISKHGLLVQLANPRLTDMDREAITAVLQFTNTQQQQQQHKQQLDMLSSTVIASQLQNLHNLAIVQQTLAARQQPQHNPQTQAPHQLSQEDLQAHANVIMRNAVMKRKIEEQTSKLINGGAKHQAQQQYLNRGQQRQARPDANSNALLHALISGGGNNHASGYPMNGQPQKHHSNLRFGDNQNFQSFESNQPHFATQYKQQYQQSQQQHPHQQPQQLNSLHQNNAGAVNSFNKAQMQAQSAISMLPNSGDEFH
For B3, the binding result was “binds”.
